Data on 30 sequences can be found in article PMC7862700.

The chains behind the UniProt entries cited, without tags or fusion partners. Where a name states a change or a piece, a line headed by the entry shows the natural chain unless it says otherwise.
UniProt P32519: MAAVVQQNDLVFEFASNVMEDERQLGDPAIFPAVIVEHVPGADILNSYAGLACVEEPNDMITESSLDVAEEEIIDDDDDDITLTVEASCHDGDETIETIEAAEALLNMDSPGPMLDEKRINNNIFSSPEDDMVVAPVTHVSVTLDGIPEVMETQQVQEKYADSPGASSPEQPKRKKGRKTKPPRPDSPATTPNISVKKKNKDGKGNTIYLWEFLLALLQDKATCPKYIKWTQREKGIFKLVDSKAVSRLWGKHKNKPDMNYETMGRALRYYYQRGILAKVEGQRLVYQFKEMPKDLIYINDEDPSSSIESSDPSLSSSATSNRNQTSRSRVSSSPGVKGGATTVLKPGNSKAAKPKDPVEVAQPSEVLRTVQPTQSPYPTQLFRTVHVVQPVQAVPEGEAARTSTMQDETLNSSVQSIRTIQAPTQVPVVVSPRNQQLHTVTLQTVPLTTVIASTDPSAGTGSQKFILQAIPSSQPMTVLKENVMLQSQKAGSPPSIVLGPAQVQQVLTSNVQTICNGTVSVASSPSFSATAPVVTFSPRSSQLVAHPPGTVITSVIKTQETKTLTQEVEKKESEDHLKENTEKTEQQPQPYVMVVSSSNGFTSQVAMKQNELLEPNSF
UniProt P50549: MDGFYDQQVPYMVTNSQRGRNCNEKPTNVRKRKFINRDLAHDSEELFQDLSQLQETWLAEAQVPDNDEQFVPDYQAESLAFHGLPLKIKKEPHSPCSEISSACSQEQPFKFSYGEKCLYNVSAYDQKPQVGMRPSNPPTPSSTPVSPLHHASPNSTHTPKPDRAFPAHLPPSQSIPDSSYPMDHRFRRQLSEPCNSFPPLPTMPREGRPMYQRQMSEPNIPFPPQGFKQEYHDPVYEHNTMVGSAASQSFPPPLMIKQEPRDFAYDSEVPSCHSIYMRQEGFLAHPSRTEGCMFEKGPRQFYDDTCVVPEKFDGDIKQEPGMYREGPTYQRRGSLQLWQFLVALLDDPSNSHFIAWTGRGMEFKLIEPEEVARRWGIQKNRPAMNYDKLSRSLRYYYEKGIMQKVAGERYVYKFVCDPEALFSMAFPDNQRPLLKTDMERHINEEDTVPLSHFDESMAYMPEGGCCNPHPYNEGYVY

Common to all, as to experiment: DAPPL (digital affinity profiling via proximity ligation, sequencing)
Holding throughout (conditions): 10 mM Tris-HCl pH 7.5, 50 mM NaCl, 1 mM DTT, 4% glycerol, room temperature, 30 min; GST-TFs on glutathione beads, 16-mer random dsDNA library, 0.1% …; high values mean tight binding; double strand, one strand shown; scale: fold enrichment (6-mer frequency, TF over GST control)

In one experiment the target is T1, ERG (UniProt P11308).
T1 sequence: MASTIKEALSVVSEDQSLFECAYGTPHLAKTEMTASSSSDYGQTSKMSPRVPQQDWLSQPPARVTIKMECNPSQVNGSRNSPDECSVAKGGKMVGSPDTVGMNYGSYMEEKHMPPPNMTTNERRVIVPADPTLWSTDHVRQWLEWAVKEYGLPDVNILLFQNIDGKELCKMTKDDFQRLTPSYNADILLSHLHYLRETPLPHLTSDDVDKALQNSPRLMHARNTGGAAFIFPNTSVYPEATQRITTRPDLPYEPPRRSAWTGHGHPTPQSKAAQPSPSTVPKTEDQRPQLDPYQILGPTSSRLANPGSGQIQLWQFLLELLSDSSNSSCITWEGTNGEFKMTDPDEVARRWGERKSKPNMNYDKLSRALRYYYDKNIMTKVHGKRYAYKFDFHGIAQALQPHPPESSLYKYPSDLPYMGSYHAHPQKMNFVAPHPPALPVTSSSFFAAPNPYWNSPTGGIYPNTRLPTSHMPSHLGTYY

The target in another experiment is ELF1 (UniProt P32519).
In another experiment the target is T2, ELK4 (UniProt P28324-2).
T2 sequence: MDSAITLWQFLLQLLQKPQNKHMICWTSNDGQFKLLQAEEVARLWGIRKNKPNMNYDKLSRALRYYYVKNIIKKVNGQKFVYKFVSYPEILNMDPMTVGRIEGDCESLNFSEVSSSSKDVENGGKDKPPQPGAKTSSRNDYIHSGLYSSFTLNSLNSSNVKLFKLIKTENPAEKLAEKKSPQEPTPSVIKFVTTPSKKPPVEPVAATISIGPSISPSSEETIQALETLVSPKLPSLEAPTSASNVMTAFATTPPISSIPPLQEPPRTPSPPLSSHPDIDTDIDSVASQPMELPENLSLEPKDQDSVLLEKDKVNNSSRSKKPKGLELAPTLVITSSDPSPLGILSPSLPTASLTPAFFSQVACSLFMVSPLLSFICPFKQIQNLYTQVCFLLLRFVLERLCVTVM

The target of a further experiment is T3, ETV4 (UniProt P43268).
T3 sequence: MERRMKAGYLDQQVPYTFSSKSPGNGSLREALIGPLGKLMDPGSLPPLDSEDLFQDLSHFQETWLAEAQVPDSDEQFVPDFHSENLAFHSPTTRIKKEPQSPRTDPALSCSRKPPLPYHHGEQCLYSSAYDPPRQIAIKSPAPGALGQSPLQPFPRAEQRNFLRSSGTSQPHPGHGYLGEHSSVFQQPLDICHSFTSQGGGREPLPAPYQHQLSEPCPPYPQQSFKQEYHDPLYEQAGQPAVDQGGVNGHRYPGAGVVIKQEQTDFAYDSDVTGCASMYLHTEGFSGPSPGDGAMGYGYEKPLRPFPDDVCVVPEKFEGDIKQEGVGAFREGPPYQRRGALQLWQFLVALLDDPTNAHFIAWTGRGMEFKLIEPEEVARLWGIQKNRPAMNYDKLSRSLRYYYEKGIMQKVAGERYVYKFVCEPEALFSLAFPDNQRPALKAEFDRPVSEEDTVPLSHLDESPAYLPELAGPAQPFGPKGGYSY

Another experiment concerns the target ETV1 (UniProt P50549).
For another experiment, the target named is T4, ERF (UniProt P50548).
T4 sequence: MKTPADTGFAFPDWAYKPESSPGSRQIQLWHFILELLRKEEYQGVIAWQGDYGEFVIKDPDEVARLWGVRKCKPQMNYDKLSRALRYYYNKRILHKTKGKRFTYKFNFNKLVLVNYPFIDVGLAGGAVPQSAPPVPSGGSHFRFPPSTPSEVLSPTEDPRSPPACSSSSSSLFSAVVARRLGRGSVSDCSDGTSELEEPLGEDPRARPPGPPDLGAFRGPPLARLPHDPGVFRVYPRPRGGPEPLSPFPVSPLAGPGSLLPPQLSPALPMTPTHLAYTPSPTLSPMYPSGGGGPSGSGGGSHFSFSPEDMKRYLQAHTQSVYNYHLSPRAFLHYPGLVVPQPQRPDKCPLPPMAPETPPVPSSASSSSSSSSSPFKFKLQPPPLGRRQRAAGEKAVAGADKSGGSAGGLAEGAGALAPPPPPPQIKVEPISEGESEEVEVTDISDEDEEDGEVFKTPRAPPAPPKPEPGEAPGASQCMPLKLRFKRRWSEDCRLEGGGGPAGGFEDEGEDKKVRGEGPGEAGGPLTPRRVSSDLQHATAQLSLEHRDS

The entries are a selection whose mix differs from that of the whole data set. For part of these data: At the low end of the ranking, values are background and their order means little. Some of the results follow. For part of these data: Construct or isoform of the protein are uncertain.

As for AGTTGT, the binding signal in the experiment with ERG amounted to 0.754; in the experiment with ELF1, 0.783; with ELK4, 0.946; in the experiment with ETV4 it was 0.83; with ETV1, 0.739; with ERF, 0.688.
In the case of GGGTCT, the binding signal with ERG is 0.847; in the experiment with ELF1, 0.98; with ELK4 it was 0.95; in the experiment with ETV4 it was 0.885; with ETV1 it was 0.954; with ERF, 0.998.
As to GTACGT, the binding signal was found to be 0.757 with ERG; 0.865 with ELF1; 0.777 with ELK4; 0.859 with ETV4; 0.906 with ETV1; 0.844 in the experiment with ERF.
Take CAGTAC: the binding signal in the experiment with ERG was 0.822; with ELF1 it was 0.839; with ELK4 it was 0.812; in the experiment with ETV4 it was 0.86; in the experiment with ETV1, 0.837; in the experiment with ERF, 0.81.
Turning to CAGCCG, the binding signal with ERG was determined as 0.71; with ELF1, 0.689; with ELK4 it was 0.653; with ETV4, 0.718; in the experiment with ETV1, 0.653; with ERF, 0.656.
Regarding ACTGTG, the binding signal is 0.527 in the experiment with ERG; 0.527 with ELF1; 0.526 in the experiment with ELK4; 0.527 with ETV4; 0.483 with ETV1; 0.556 in the experiment with ERF.
Take GCACAG: the binding signal with ERG turned out to be 0.761; with ELF1, 0.759; with ELK4 it was 0.813; with ETV4 it was 0.734; in the experiment with ETV1 it was 0.76; in the experiment with ERF it was 0.758.
Take AAGAGC: the binding signal with ERG was 0.825; with ELF1 it was 0.897; with ELK4, 0.765; with ETV4, 0.857; in the experiment with ETV1 it was 0.887; in the experiment with ERF, 0.878.
For CGGGCC, the binding signal came to 0.679 with ERG; 0.75 in the experiment with ELF1; 0.775 in the experiment with ELK4; 0.725 with ETV4; 0.837 with ETV1; 0.727 in the experiment with ERF.
As to ATCGGC, the binding signal with ERG came out at 0.645; in the experiment with ELF1, 0.639; with ELK4, 0.724; with ETV4 it was 0.703; in the experiment with ETV1, 0.595; with ERF, 0.641.
On to GACGGG, for which the binding signal with ERG worked out at 0.415; in the experiment with ELF1 it was 0.43; with ELK4, 0.422; in the experiment with ETV4, 0.403; in the experiment with ETV1, 0.45; with ERF, 0.462.
In the case of GGGCCA, the binding signal was 0.693 with ERG; 0.746 with ELF1; 0.683 in the experiment with ELK4; 0.694 with ETV4; 0.68 with ETV1; 0.759 in the experiment with ERF.
Turning to GGTTCG, the binding signal in the experiment with ERG turned out to be 0.808; with ELF1, 0.8; with ELK4 it was 0.803; in the experiment with ETV4, 0.844; in the experiment with ETV1, 0.836; with ERF it was 0.821.
TGTGTG: the binding signal turned out to be 0.784 in the experiment with ERG; 0.813 in the experiment with ELF1; 0.935 with ELK4; 0.819 with ETV4; 0.926 with ETV1; 0.753 in the experiment with ERF.
For the sequence TGCGAG, the binding signal stood at 0.948 with ERG; 0.903 in the experiment with ELF1; 0.855 in the experiment with ELK4; 0.854 in the experiment with ETV4; 0.981 in the experiment with ETV1; 0.968 with ERF.
As to GGCTGG, the binding signal with ERG was determined as 0.764; with ELF1 it was 0.784; in the experiment with ELK4, 0.813; with ETV4, 0.81; with ETV1, 0.706; in the experiment with ERF, 0.741.
As for CGTCGG, the binding signal with ERG is 0.457; in the experiment with ELF1 it was 0.435; with ELK4, 0.349; in the experiment with ETV4, 0.403; in the experiment with ETV1, 0.45; in the experiment with ERF, 0.398.
As to ATCGTA, the binding signal was determined as 0.892 with ERG; 0.862 in the experiment with ELF1; 0.835 with ELK4; 0.858 with ETV4; 0.934 in the experiment with ETV1; 0.893 with ERF.
As for AACAGT, the binding signal in the experiment with ERG was 0.648; with ELF1, 0.704; in the experiment with ELK4, 0.654; with ETV4, 0.682; with ETV1, 0.68; with ERF, 0.632.
GAAGAC: the binding signal with ERG came to 0.827; with ELF1, 0.87; with ELK4, 0.822; in the experiment with ETV4, 0.858; in the experiment with ETV1, 0.874; with ERF, 0.931.
As for GGGAGC, the binding signal in the experiment with ERG stood at 0.414; in the experiment with ELF1, 0.395; in the experiment with ELK4, 0.34; in the experiment with ETV4, 0.388; in the experiment with ETV1 it was 0.381; with ERF it was 0.403.
Take GGGCCG: the binding signal in the experiment with ERG was found to be 0.596; with ELF1, 0.6; in the experiment with ELK4, 0.59; in the experiment with ETV4, 0.61; in the experiment with ETV1, 0.579; with ERF it was 0.667.
Regarding GAGTTT, the binding signal with ERG was determined as 0.607; with ELF1, 0.634; with ELK4, 0.586; in the experiment with ETV4 it was 0.578; with ETV1 it was 0.659; in the experiment with ERF, 0.613.
As to GGGGAA, the binding signal with ERG came to 0.723; with ELF1, 0.678; with ELK4, 0.658; with ETV4 it was 0.728; with ETV1, 0.781; with ERF, 0.737.
Turning to GCCAGT, the binding signal with ERG came to 0.317; with ELF1, 0.331; with ELK4, 0.322; with ETV4, 0.293; with ETV1 it was 0.314; with ERF, 0.289.
For the sequence GACAGT, the binding signal was found to be 0.45 in the experiment with ERG; 0.452 with ELF1; 0.521 with ELK4; 0.439 in the experiment with ETV4; 0.461 in the experiment with ETV1; 0.461 with ERF.
AGAGGC: the binding signal in the experiment with ERG came to 0.735; with ELF1 it was 0.664; with ELK4, 0.756; with ETV4 it was 0.678; with ETV1, 0.722; with ERF, 0.735.
Consider GGGTGG, for which the binding signal turned out to be 0.769 in the experiment with ERG; 0.829 in the experiment with ELF1; 0.845 with ELK4; 0.794 with ETV4; 0.672 in the experiment with ETV1; 0.778 with ERF.
Turning to GAGATA, the binding signal is 0.643 with ERG; 0.65 with ELF1; 0.649 with ELK4; 0.601 with ETV4; 0.647 in the experiment with ETV1; 0.718 with ERF.
As to GGCGTG, the binding signal with ERG turned out to be 0.335; with ELF1, 0.334; with ELK4, 0.334; in the experiment with ETV4 it was 0.318; in the experiment with ETV1, 0.346; in the experiment with ERF it was 0.315.
